Laboratory results: PubChem BioAssay AID504744 (Drosophila RNAi Screening Center, 2011)
Assay: 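Find genes whose loss alters insulin-driven dAkt phosphorylation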 (primary screen). Cell system: Drosophila Kc167 cells. Knock-down reagent: long dsRNA against Drosophila genes, 250 ng dsRNA per well of a 384-well plate. Duration: 3 days of knock-down, then overnight serum-free starvation before stimulation. Challenge: bovine insulin at 387 nM for 10 minutes after 12 h without serum. Detection: 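In-cell antibody fluorescence for phospho-dAkt in each well over DNA-dye signal, with log2 residuals expressed as z-scores adjusted for cell count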. Hit rule: 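Hit in the insulin screen when the two-replicate mean z-score is more extreme than plus or minus 2.5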.
In all, the deposit lists about 23,000 reagents; shown is a random part of those that have a named target and a result. Over the whole deposit, 98 (0.43%) are marked active. 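Only hit calls are given; the phospho-dAkt signals, z-scores and hit direction were not deposited.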 Reagents against one gene are numbered here. Names joined by + are all predicted targets of the reagent.

target	reagent	outcome
CG7745	1	inactive
AMPKalpha (AMP-activated protein kinase alpha subunit)	1	active
Gle1 (Gle1 RNA export mediator)	1	inactive
lncRNA:CR40629 (long non-coding RNA:CR40629)	1	inactive
mRpS25 (mitochondrial ribosomal protein S25)	1	inactive
CG3902	1	inactive
CG2915	1	inactive
bsf (bicoid stability factor)	1	inactive
CkIIbeta (Casein kinase II beta subunit)	1	inactive
CG14646	1	inactive
CG14646	2	inactive
twit (target of wit)	1	inactive
CG6661	1	inactive
CG11370	1	inactive
CG3117	1	inactive
alphaCOP (Coat Protein (coatomer) alpha)	1	inactive
Snx16 (Sorting nexin 16)	1	inactive
CG42471	1	inactive
CG9890	1	inactive
CG17652	1	inactive
CG17375	1	inactive
pncr004:X (retired record)	1	inactive
CG2861	1	inactive
Atg14 (Autophagy-related 14)	1	inactive
CG17944	1	inactive
Vm32E (Vitelline membrane 32E)	1	inactive
spz5 (spatzle 5)	1	inactive
noc (no ocelli)	1	inactive
stol (stolid)	1	inactive
CG11381	1	inactive
Mettl2 (Methyltransferase like 2)	1	inactive
CG9346	1	inactive
sut2 (sugar transporter 2)	1	inactive
Spag1 (Spag1 axonemal dynein assembly factor)	1	inactive
Rpt4R (Regulatory particle triple-A ATPase 4-related)	1	inactive
Epp (Ecdysteroid phosphate phosphatase)	1	inactive
NSD (Nuclear receptor binding SET domain protein)	1	inactive
axed (axundead)	1	inactive
axed (axundead)	2	inactive
CG2267	1	inactive
CG12011	1	inactive
Mat89Ba (Maternal transcript 89Ba)	1	inactive
CG31406	1	inactive
CG12375	1	inactive
CG6765	1	inactive
CG40245 (retired record)	1	inactive
CG6707	1	inactive
Cyp6v1 (Cytochrome P450 6v1)	1	inactive
ND4 (retired record)	1	inactive
CG15525	1	inactive
CG34457	1	inactive
unc80 (uncoordinated 80)	1	inactive
CG1850	1	inactive
RpL30 (Ribosomal protein L30)	1	inactive
mle (maleless)	1	inactive
CG31368	1	inactive
CG31368	2	inactive
Dph2 (Diphthamide biosynthesis 2)	1	inactive
beat-VI (beaten path VI)	1	inactive
beat-VI (beaten path VI)	2	inactive
CG15209	1	inactive
CG40298	1	inactive
Cpr49Aa (Cuticular protein 49Aa)	1	inactive
CG40006	1	inactive
CG40006	2	inactive
CG40006	3	inactive
CG40006	4	inactive
CG18598	1	inactive
Ak1 (Adenylate kinase 1)	1	inactive
Oscillin	1	inactive
ZnT49B (Zinc transporter 49B)	1	inactive
Tcs3 (Threonyl-carbamoyl synthesis 3)	1	inactive
uncNacbeta	1	inactive
CG3735	1	inactive
CG14464	1	inactive
CSN6 (COP9 signalosome subunit 6)	1	inactive
CG8460	1	inactive
Ssk (Snakeskin)	1	inactive
CG9993	1	inactive
Snrk (SNF related kinase)	1	inactive
CG9259	1	inactive
Tbca (Tubulin binding cofactor A)	1	inactive
CG30109	1	inactive
Uros2 (Uroporphyrinogen III synthase 2)	1	inactive
Rep (Rab escort protein)	1	inactive
ATPsynepsilonL (ATP synthase, epsilon subunit-like)	1	inactive
Marf (Mitochondrial assembly regulatory factor)	1	inactive
rept (reptin)	1	inactive
CG32833	1	inactive
msd1 (mitotic spindle density 1)	1	inactive
Pyroxd1 (Pyridine nucleotide-disulfide oxidoreductase domain 1)	1	inactive
Nup358 (Nucleoporin 358kD)	1	inactive
CG14126 (retired record)	1	inactive
mil (milkah)	1	inactive
CG31948	1	inactive
p24-1 (p24-related-1)	1	inactive
Mrtf (Myocardin-related transcription factor)	1	inactive
Mrtf (Myocardin-related transcription factor)	2	inactive
Mrtf (Myocardin-related transcription factor)	3	inactive
Agpat3 (1-Acylglycerol-3-phosphate O-acyltransferase 3)	1	inactive
CG8329	1	inactive
VGAT (Vesicular GABA Transporter)	1	inactive
PQBP1 (Poly-glutamine tract binding protein 1)	1	inactive
CG13622	1	inactive
CG14086	1	inactive
CG15571	1	inactive
CG11151	1	inactive
CG14104	1	inactive
CG34050 (retired record)	1	inactive
NT1 (Neurotrophin 1)	1	inactive
NT1 (Neurotrophin 1)	2	inactive
CG33253	1	inactive
CG33253	2	inactive
CG14107	1	inactive
CG12831	1	inactive
tsh (teashirt)	1	inactive
CG9698	1	inactive
Oamb (Octopamine receptor in mushroom bodies)	1	inactive
Oamb (Octopamine receptor in mushroom bodies)	2	inactive
Oamb (Octopamine receptor in mushroom bodies)	3	inactive
Galphao (G protein alpha subunit o)	1	inactive
CG8034	1	inactive
TwdlV (TweedleV)	1	inactive
msps (mini spindles)	1	inactive
CG5623	1	inactive
Tsp5D (Tetraspanin 5D)	1	inactive
Sirt4 (Sirtuin 4)	1	inactive
Xport-A + Xport-B	1	inactive
fusl (fuseless)	1	inactive
CG6271	1	inactive
CG11334	1	inactive
CG11334	2	inactive
conv (convoluted)	1	inactive
sens (senseless)	1	inactive
CG31601	1	inactive
Tmtc2 (Transmembrane O-mannosyltransferase targeting cadherins 2)	1	inactive
Iris	1	inactive
Peritrophin-15a	1	inactive
Trm1 (tRNA methyltransferase 1)	1	inactive
CG3679	1	inactive
mei-P22 (meiotic P22)	1	inactive
unc-13	1	inactive
unc-13	2	inactive
unc-13	3	inactive
TM9SF4 (Transmembrane 9 superfamily protein member 4)	1	inactive
TM9SF4 (Transmembrane 9 superfamily protein member 4)	2	inactive
blow (blown fuse)	1	inactive
Amy-d (Amylase distal)	1	inactive
CG13331	1	inactive
Gld2 (GLD2 poly(A) polymerase)	1	inactive
chn (charlatan)	1	inactive
scro (scarecrow)	1	inactive
scro (scarecrow)	2	inactive
sPLA2 (secretory Phospholipase A2)	1	inactive
CG6753	1	inactive
sgll (sugarlethal)	1	inactive
CG1724	1	inactive
CG32107	1	inactive
Sema1a (Semaphorin 1a)	1	inactive
CrebB (Cyclic-AMP response element binding protein B)	1	inactive
Ir60d (Ionotropic receptor 60d)	1	inactive
His2B:CG33894 + His2B:CG33872 + His2B:CG33902 + 20 more	1	inactive
p120ctn (p120 catenin)	1	inactive
CG7601	1	inactive
CG11791	1	inactive
CG9068	1	inactive
CG34244	1	inactive
CG31815	1	inactive
Gr93d (Gustatory receptor 93d)	1	inactive
Ppt1 (Palmitoyl-protein thioesterase 1)	1	inactive
CG15423	1	inactive
CG14777	1	inactive
CG11164	1	inactive
Pal1 + Pdrg1	1	inactive
Tsp (Thrombospondin)	1	inactive
Tsp (Thrombospondin)	2	inactive
CG31677	1	inactive
CG10147	1	inactive
Naa60 (N(alpha)-acetyltransferase 60)	1	inactive
RpL36A (Ribosomal protein L36A)	1	inactive
CG42260	1	inactive
CG42260	2	inactive
CG42260	3	inactive
nAChRbeta2 (nicotinic Acetylcholine Receptor beta2)	1	inactive
mRpL41 (mitochondrial ribosomal protein L41)	1	inactive
CG10465	1	inactive
gwl (greatwall)	1	inactive
CG4768	1	inactive
CG33330 (retired record)	1	inactive
CG33330 (retired record)	2	inactive
Pex11ab (Peroxin 11a/b)	1	inactive
CG5098	1	inactive
cid (centromere identifier)	1	inactive
cid (centromere identifier)	2	inactive
CG34224	1	inactive
Mal-A8 (Maltase A8)	1	inactive
CCAP (Crustacean cardioactive peptide)	1	inactive
vls (valois)	1	inactive
GstD2 (Glutathione S transferase D2)	1	inactive
p47	1	inactive

An excerpt of the results above, as a working copy:
target	reagent	outcome
CG40245 (retired record)	1	inactive
CG6707	1	inactive
Cyp6v1 (Cytochrome P450 6v1)	1	inactive
ND4 (retired record)	1	inactive
CG15525	1	inactive
CG34457	1	inactive
unc80 (uncoordinated 80)	1	inactive
CG1850	1	inactive
RpL30 (Ribosomal protein L30)	1	inactive
mle (maleless)	1	inactive
CG31368	1	inactive
CG31368	2	inactive
Dph2 (Diphthamide biosynthesis 2)	1	inactive
beat-VI (beaten path VI)	1	inactive
beat-VI (beaten path VI)	2	inactive
CG15209	1	inactive
CG40298	1	inactive
Cpr49Aa (Cuticular protein 49Aa)	1	inactive
CG40006	1	inactive
CG40006	2	inactive
CG40006	3	inactive
CG40006	4	inactive
CG18598	1	inactive
Ak1 (Adenylate kinase 1)	1	inactive
Oscillin	1	inactive
ZnT49B (Zinc transporter 49B)	1	inactive
Tcs3 (Threonyl-carbamoyl synthesis 3)	1	inactive
uncNacbeta	1	inactive
